Reference: article PMC12013929
These are yes or no findings as the source states them, for the method shown. Binding can be weak; no strength is given.

Molecular target: IpaH4 bait (yeast two-hybrid) (Shigella flexneri)
Assay: two-hybrid; two yeast two-hybrid screens with IpaH4 bait and human prey

B1: human RNF214 yeast two-hybrid prey clones (central region, a.a. 276-504) (domain or fragment, UniProt Q8ND24 276-504)
chain: LKAIQDVTIKREETKKKIEKEKKEFLQKEQDLKAEIEKLCEKGRREVWEMELDRLKNQDGEINRNIMEETERAWKAEILSLESRKELLVLKLEEAEKEAELHLTYLKSTPPTLETVRSKQEWETRLNGVRIMKKNVRDQFNSHIQLVRNGAKLSSLPQIPTPTLPPPPSETDFMLQVFQPSPSLAPRMPFSIGQVTMPMVMPSADPRSLSFPILNPALSQPSQPSSPLP
B1 was tested, and the binding was “binds”.
